From PubChem BioAssay AID330 (DTP/NCI, 2004)
The list does not hold the whole screen: it is rich in T/C values a quarter to a half above the control, in often repeated tests (any T/C) and in doses without a T/C. Further doses and runs are listed elsewhere. T/C: endpoint of the treated group in % of that of the vehicle group. Some doses have a count of surviving animals in place of a T/C: the source holds a T/C of zero for them, seemingly a mark for toxic or unscored doses. Some survivor counts are full or nearly so, which does not show that the dose was tolerated: survival well below the control is almost never listed, so the zero probably covers shortened survival too. Counts of survivors are from the toxicity check (mostly the fifth day) where no day follows; animals may have died later. Schedule codes are those of the source, read here as Q, the interval in days (D) or hours (H), X, the number of doses. Some doses were run more than once; the results are listed from low to high. Where survival is the endpoint, the PubChem record calls one and a half times the control and up active, and a quarter to a half above the control has no call in these data; cut-offs in other NCI protocols can differ. Marks such as (2×) give the number of equal values in this list. Some T/C values carry the count of animals alive at the toxicity check (mostly the fifth day); without a count, all were alive then.

Tested on: P388 leukemia ip, CD2F1 mice, survival T/C
Experiment: NCI In Vivo Anticancer Drug Screen. Data for tumor model P388 Leukemia (intraperitoneal) in CD2F1 (CDF1) mice
Settings: T/C endpoint: median survival time, higher T/C = longer survival
[1] = dose: 200.0 mg/kg/injection, schedule: Q01DX005 (ip), vehicle: Klucel (hydroxypropylcellulose) (HPC)
[2] = dose: 100.0 mg/kg/injection, schedule: Q01DX009 (ip), vehicle: saline
[3] = dose: 200.0 mg/kg/injection, schedule: Q01DX009 (ip), vehicle: saline
[4] = dose: 200.0 mg/kg/injection, schedule: Q04DX003 (ip), vehicle: saline with Tween-80
[5] = dose: 200.0 mg/kg/injection, schedule: Q01DX005 (ip), vehicle: saline with Tween-80
[6] = dose: 100.0 mg/kg/injection, schedule: Q01DX005 (ip), vehicle: Klucel (hydroxypropylcellulose) (HPC)
[7] = dose: 50.0 mg/kg/injection, schedule: Q01DX009 (ip), vehicle: water
[8] = dose: 200.0 mg/kg/injection, schedule: Q01DX009 (ip), vehicle: saline with Tween-80
[9] = dose: 100.0 mg/kg/injection, schedule: Q01DX005 (ip), vehicle: saline with Tween-80
[10] = dose: 50.0 mg/kg/injection, schedule: Q01DX005 (ip), vehicle: Klucel (hydroxypropylcellulose) (HPC)
[11] = dose: 120.0 mg/kg/injection, schedule: Q01DX005 (ip), vehicle: saline with Tween-80
[12] = dose: 50.0 mg/kg/injection, schedule: Q01DX005 (ip), vehicle: saline with Tween-80
[13] = dose: 400.0 mg/kg/injection, schedule: Q04DX003 (ip), vehicle: Klucel (hydroxypropylcellulose) (HPC)
[14] = dose: 240.0 mg/kg/injection, schedule: Q01DX005 (ip), vehicle: saline with Tween-80

Q: c1ccc(CCn2c(-c3ccccn3)nc3ccccc32)nc1 was tested. Which survivor count [1] did it give?
A: 4 of 6

Q: Which survivor count [1] does the source give for CCOc1cc2c(cc1C(CC)c1ccc(OCc3ccccc3)cc1)OCO2 (stereo not given) here?
A: 6 of 6

Q: What does the source list for CCCCCC(CN(C)C)C(O)/C=C/c1ccc(Cl)c(Cl)c1 (stereo not given)?
A: survivor count (dose: 50.0 mg/kg/injection, schedule: Q01DX009 (ip), vehicle: saline): 2 of 6 and 4 of 6; survivor count [2]: 0 of 6; survivor count [3]: 0 of 6

Q: Which survivor count [4] does the source give for O=[N+]([O-])c1ccc(N/N=C\c2c(Cl)n(-c3ccccc3)c3ccccc23)c([N+](=O)[O-])c1 here?
A: 6 of 6

Q: How did the survivor count (dose: 240.0 mg/kg/injection, schedule: Q01DX005 (ip), vehicle: Klucel + Tween-80) turn out when O=c1[nH]c2cc([N+](=O)[O-])ccc2nc1/C=C(\O)c1ccc(F)cc1 was run?
A: 6 of 6

Q: O=[N+]([O-])c1ccc(O)c(/C=N\NS(=O)(=O)c2ccc(F)cc2)c1 was tested. Which survivor count [5] did it give?
A: 1 of 6

Q: What does the source list for CC1CN=C(Cc2ccc(NC(=O)c3ccc(C(=O)Nc4ccc(CC5=NCC(C)N5)cc4)cc3)cc2)N1 (stereo not given)?
A: survivor count (dose: 25.0 mg/kg/injection, schedule: Q01DX005 (ip), vehicle: saline): 0 of 6; survivor count (dose: 50.0 mg/kg/injection, schedule: Q01DX005 (ip), vehicle: saline): 0 of 6; survivor count (dose: 100.0 mg/kg/injection, schedule: Q01DX005 (ip), vehicle: saline): 0 of 6; survivor count (dose: 200.0 mg/kg/injection, schedule: Q01DX005 (ip), vehicle: saline): 0 of 6

Q: For C=C1C(=O)OC2C1C(OC(=O)/C(C)=C/C)CC1(C)C(=O)CCC(=C)C21 (stereo not given), which T/C [6] is on record?
A: 125 % of control [5 of 6 alive]

Q: Which T/C [7] does the source give for O=C1N(CCN2CCC3(CC2)OCCO3)CCN1c1cc(Cl)cc(Cl)c1 here?
A: 113, 116 (2×), 130 % of control

Q: Which survivor count (dose: 100.0 mg/kg/injection, schedule: Q01DX009 (ip), vehicle: saline with Tween-80) does the source give for Cc1ccc(S(=O)(=O)C(=S)Sc2ccccc2)cc1 here?
A: 1 of 6

Q: What about the survivor count [8] of the same molecule?
A: 0 of 6

Q: Which results are given for CN(C)CCNc1cccc2sc3ccc(O)cc3c(=O)c12?
A: T/C [9]: 125 [5 of 6 alive] and 146 % of control; T/C [5]: 136 % of control

Q: What does the source list for COc1cc2c(cc1O)N=C[C@@H]1CCC(O)N1C2=O (mixture of isomers)?
A: T/C (dose: 1.0 mg/kg/injection, schedule: Q01DX009 (ip), vehicle: saline): 134 % of control; T/C (dose: 2.0 mg/kg/injection, schedule: Q01DX009 (ip), vehicle: saline): 134 % of control; T/C (dose: 4.0 mg/kg/injection, schedule: Q01DX009 (ip), vehicle: saline): 147 % of control; survivor count (dose: 8.0 mg/kg/injection, schedule: Q01DX009 (ip), vehicle: saline): 5 of 6; survivor count (dose: 16.0 mg/kg/injection, schedule: Q01DX009 (ip), vehicle: saline): 0 of 6; survivor count (dose: 32.0 mg/kg/injection, schedule: Q01DX009 (ip), vehicle: saline): 0 of 6

Q: With O.O.[Cu+2].[Cu+2].[NH-]CCC(=O)[N-]C(Cc1cnc[nH]1)C(=O)O.[NH-]CCC(=O)[N-]C(Cc1cnc[nH]1)C(=O)O (stereo not given) as the molecule, how does the survivor count [10] read?
A: 0 of 5

Q: What about the survivor count [6] of the same molecule?
A: 0 of 5

Q: And the survivor count [1]?
A: 0 of 5

Q: C=C(C)C12CC(C)C34OC(CCCCCCCCC)(OC1C3C1OC1(CO)C(O)C1(O)C(=O)C(C)=CC14)O2 (stereo not given) was tested. Which T/C (dose: 80.0 micrograms/kg/injection, schedule: Q01DX009 (ip), vehicle: saline + alcohol) did it give?
A: 131 % of control

Q: For CCCCN(CCCC)CCC(O)c1cc2c(Cl)cc(Cl)cc2c2cc(C(F)(F)F)ccc12 (stereo not given), which survivor count [8] is on record?
A: 6 of 6

Q: For CCOc1c(Cc2ccccc2)c(=O)nc2c(-c3ccccc3)cncn12, which survivor count [11] is on record?
A: 6 of 6

Q: NCCc1ccccc1 was tested. Which survivor count [2] did it give?
A: 5 of 6

Q: What about the survivor count [3] of the same molecule?
A: 0 of 6

Q: And the survivor count (dose: 400.0 mg/kg/injection, schedule: Q01DX009 (ip), vehicle: saline)?
A: 0 of 6

Q: What about the survivor count (dose: 600.0 mg/kg/injection, schedule: Q01DX009 (ip), vehicle: saline) of the same molecule?
A: 0 of 6

Q: For O=C1c2ccc([N+](=O)[O-])cc2C(=O)N1CC[P+](c1ccccc1)(c1ccccc1)c1ccccc1, which survivor count [7] is on record?
A: 2 of 6

Q: What about the survivor count (dose: 100.0 mg/kg/injection, schedule: Q01DX009 (ip), vehicle: water) of the same molecule?
A: 0 of 6

Q: And the survivor count (dose: 200.0 mg/kg/injection, schedule: Q01DX009 (ip), vehicle: water)?
A: 0 of 6

Q: What about the survivor count (dose: 400.0 mg/kg/injection, schedule: Q01DX009 (ip), vehicle: water) of the same molecule?
A: 0 of 6

Q: Which T/C [12] does the source give for CC1=C(C)C(=O)C(C(C)(C)CC(=O)N(C)/N=N/c2nc[nH]c2C(N)=O)=C(C)C1=O here?
A: 140 % of control

Q: How did the survivor count [8] turn out when O=C(O)CCc1nc(-c2ccccc2-n2cccc2)no1 was run?
A: 0 of 6

Q: How did the survivor count (dose: 200.0 mg/kg/injection, schedule: Q04DX002 (ip), vehicle: saline) turn out when COc1ccc2nc3c(=O)[nH]c(=O)nc-3n(CC(O)C(O)C(O)CO)c2c1 (stereo not given) was run?
A: 3 of 6

Q: What about the survivor count (dose: 400.0 mg/kg/injection, schedule: Q04DX002 (ip), vehicle: saline) of the same molecule?
A: 1 of 6

Q: How did the survivor count [13] turn out when N#CC1CCC(c2ccccc2)(c2ccccc2)C1=O (stereo not given) was run?
A: 3 of 6

Q: What does the source list for COc1cc(NS(C)(=O)=O)ccc1Nc1c2ccccc2nc2c(C)cccc12?
A: T/C (dose: 0.62 mg/kg/injection, schedule: Q01DX009 (ip), vehicle: saline with Tween-80): 145 % of control [5 of 6 alive]; survivor count (dose: 12.5 mg/kg/injection, schedule: Q01DX009 (ip), vehicle: Klucel (hydroxypropylcellulose) (HPC)): 6 of 6; survivor count (dose: 25.0 mg/kg/injection, schedule: Q01DX009 (ip), vehicle: Klucel (hydroxypropylcellulose) (HPC)): 4 of 6; survivor count (dose: 50.0 mg/kg/injection, schedule: Q01DX009 (ip), vehicle: Klucel (hydroxypropylcellulose) (HPC)): 2 of 6

Q: Which survivor count (dose: 6.25 mg/kg/injection, schedule: Q01DX009 (ip), vehicle: saline) does the source give for CCC[CH2][Sn]([CH2]CCC)([N]=C=S)[N]=C=S here?
A: 4 of 6

Q: And the survivor count (dose: 12.5 mg/kg/injection, schedule: Q01DX009 (ip), vehicle: saline)?
A: 1 of 6

Q: What about the survivor count (dose: 25.0 mg/kg/injection, schedule: Q01DX009 (ip), vehicle: saline) of the same molecule?
A: 0 of 6

Q: And the survivor count (dose: 50.0 mg/kg/injection, schedule: Q01DX009 (ip), vehicle: suspension in saline)?
A: 5 of 6

Q: What about the survivor count (dose: 100.0 mg/kg/injection, schedule: Q01DX009 (ip), vehicle: suspension in saline) of the same molecule?
A: 2 of 6

Q: What about the survivor count (dose: 200.0 mg/kg/injection, schedule: Q01DX009 (ip), vehicle: suspension in saline) of the same molecule?
A: 0 of 6

Q: For O=C(N/N=C/c1ccccn1)c1ccccc1[O-].O=C(N/N=C/c1ccccn1)c1ccccc1[O-].[Co+2], which survivor count [1] is on record?
A: 0 of 6

Q: What does the source list for O=c1oc2ccccc2c(O)c1C(c1ccc2c(c1)OCO2)N1CCCC1 (stereo not given)?
A: survivor count [11]: 2 of 6; survivor count [14]: 0 of 6

Q: How did the T/C [10] turn out when O=C(OCC1OC(n2cc(C(F)(F)F)c(=O)[nH]c2=O)CC1O)c1ccc([N+](=O)[O-])cc1 (stereo not given) was run?
A: 142 % of control

Q: And the survivor count [6]?
A: 6 of 6

Q: And the survivor count [1]?
A: 6 of 6

Q: Which survivor count (dose: 25.0 mg/kg/injection, schedule: Q01DX005 (ip), vehicle: saline with Tween-80) does the source give for CCCCC1CN=C(OCC)N1 (stereo not given) here?
A: 2 of 6

Q: And the survivor count [12]?
A: 0 of 6

Q: And the survivor count [9]?
A: 0 of 6

Q: And the survivor count [5]?
A: 0 of 6

Q: Which survivor count [14] does the source give for CN1CC2(CO)C(c3ccccc3)OC(c3ccccc3)C(CO)(C1)C2O (stereo not given) here?
A: 0 of 6

Q: How did the survivor count (dose: 400.0 mg/kg/injection, schedule: Q01DX001 (ip), vehicle: saline with Tween-80) turn out when COC(=O)CC(c1ccccc1)C1(c2ccc3c(c2)OCO3)SCCCS1 (stereo not given) was run?
A: 6 of 6

Q: Which survivor count (dose: 240.0 mg/kg/injection, schedule: Q01DX005 (ip), vehicle: saline) does the source give for Cc1cc(C)cc(C(=O)NCc2ccc[n+]([O-])c2)c1 here?
A: 3 of 6

Q: Which survivor count [13] does the source give for CCOC(=O)/C(C#N)=C1/CCCN1C here?
A: 6 of 6

Q: How did the survivor count [4] turn out when Cn1ncc2c(NCCc3ccccc3)ncnc21 was run?
A: 0 of 6

Q: And the survivor count (dose: 400.0 mg/kg/injection, schedule: Q04DX003 (ip), vehicle: saline with Tween-80)?
A: 0 of 6

Q: CN(C)C1c2cc3ccccc3nc2-c2ccccc2C1(C)C (stereo not given) was tested. Which survivor count [9] did it give?
A: 5 of 5
